The results in this text go back to article PMC6988918.

The chains are these.
B1: Phosphate carrier protein, mitochondrial (protein, UniProt P16036 45-356)
chain: AVEGYSCEFGSMKYYALCGFGGVLSCGLTHTAVVPLDLVKCRMQVDPQKYKGIFNGFSITLKEDGVRGLAKGWAPTLIGYSMQGLCKFGFYEVFKALYSNILGEENTYLWRTSLYLAASASAEFFADIALAPMEAAKVRIQTQPGYANTLREAVPKMYKEEGLNAFYKGVAPVWMRQIPYTMMKFACFERTVEALYKFVVPKPRSECTKAEQLVVTFVAGYIAGVFCAIVSHPADSVVSVLNKEKGSTASQVLQRLGFRGVWKGLFARIIMIGTLTALQWFIYDSVKVYFRLPRPPPPEMPESLKKKLGLTE
B2: MAGUK p55 subfamily member 2 (protein, UniProt D3ZAA9 1-552)
chain: MPVAATNSESAMQQVLDNLGSLPNATGAAELDLIFLRGIMESPIVRSLAKAHERLEETKLEAVRDNNLELVQEILRDLAELAEQSSTAAELARILQEPHFQSLLETHDSVASKTYETPPPSPGLDPTFSNQPVPPDAVRMVGIRKTAGEHLGVTFRVEGGELVIARILHGGMVAQQGLLHVGDIIKEVNGQPVGSDPRALQELLRSASGSVILKILPSYQEPHLPRQVFVKCHFDYDPARDSLIPCKEAGLRFNAGDLLQIVNQDDANWWQACHVEGGSAGLIPSQLLEEKRKAFVKRDLELTPTSGTLCGSLSGKKKKRMMYLTTKNAEFDRHELLIYEEVARMPPFRRKTLVLIGAQGVGRRSLKNKLILWDPDRYGTTVPYTSRRPKDSEREGQGYSFVSRGEMEADIRAGRYLEHGEYEGNLYGTRIDSIRGVVASGKVCVLDVNPQAVKVLRTAEFVPYVVFIEAPDFETLRAMNRAALESGVSTKQLTEADLRRTVEESSRIQRGYGHYFDLSLVNSNLERTFRELQTAMEKLRTEPQWVPVSWVY
B3: Protein RUFY3 (protein, UniProt Q5FVJ0 1-469)
chain: MSALTPPTDMPTPTTDKITQAAMETIYLCKFRVSMDGEWLCLRELDDISLTPDPEPTHEDPNYLMANERMNLMNMAKLSIKGLIESALNLGRTLDSDYAPLQQFFVVMEHCLKHGLKAKKTFLGQNKSFWGPLELVEKLVPEAAEITASVKDLPGLKTPVGRGRAWLRLALMQKKLSEYMKALINKKELLSEFYEANALMMEEEGAIIAGLLVGLNVIDANFCMKGEDLDSQVGVIDFSMYLKDGNSSKGSEGDGQITAILDQKNYVEELNRHLNATVNNLQAKVDALEKSNTKLTEELAVANNRIITLQEEMERVKEESSYLLESNRKGPKQDRTAEGQALSEARKHLKEETQLRLDVEKELELQISMRQEMELAMKMLEKDVCEKQDALVSLRQQLDDLRALKHELAFKLQSSDLGVKQKSELNSRLEEKTNQMAATIKQLEQSEKDLVKQAKTLNSAANKLIPKHH
B4: ATP synthase subunit f, mitochondrial (protein, UniProt D3ZAF6 1-88)
chain: MASIVPLKEKKLMEVKLRELPSWILMRDFTPSGIAGAFRRGYDRYYNKYINVRKGSISGINMVLAAYVVFSYCISYKELKHERRRKYH
B5: Sorting nexin-5 (protein, UniProt B1H267 1-404)
chain: MAAVPELLEQQEEDRSKLRSVSVDLNVDPSLQIDIPDALSERDKVKFTVHTKTTLPTFQSPEFSVTRQHEDFVWLHDTLTETTDYAGLIIPPAPTKPDFDGPREKMQKLGEGEGSMTKEEFAKMKQELEAEYLAVFKKTVSSHEVFLQRLSSHPVLSKDRNFHVFLEYDQDLSVRRKNTKEMFGGFFKSVVKSADEVLFSGVKEVDDFFEQEKNFLINYYNRIKDSCAKADKMTRSHKNVADDYIHTAACLHSLALEEPTVIKKYLLKVAELFEKLRKVEGRVSSDEDLKLTELLRYYMLNIEAAKDLLYRRTKALIDYENSNKALDKARLKSKDVKLAETHQQECCQKFEQLSESAKEELINFKRKRVAAFRKNLIEMSELEIKHARNNVSLLQSCIDLFKNN
B6: Adipocyte plasma membrane-associated protein (protein, UniProt Q7TP48 1-376)
chain: MTFLMLAVSLAIPLLGAMMLLESPIDPQSFSFKEPPFMFGVLQPNTKLRQAERLFENQLNGPESIVNIGDVLFTGTADGRVVKLENGEIETIARFGSGPCKTRDDEPTCGRPLGIRVGPNGTLFVVDAYKGLFEVNPQKRSVKLLLSSETPIEGKKMSFVNDLTITRDGRKIYFTDSSSKWQRRDYLLLVMEGTDDGRLLEYDTVTKEVKVLLDQLQFPNGVQLSPEEDFVLVAETAMARIRRVYVSGLMKGGADMFVENMPGFPDNIRPSSSGGYWVAAATIRANPGFSMLDFLSDKPFIKRMIFKLFSQETVMKFVPRYSLVLEVSDSGAFRRSLHDPDGQVVTYVSEAHEHDGYLYLGSFRSPFICRLSLQSI
B7: Dihydrolipoyl dehydrogenase, mitochondrial (protein, UniProt Q6P6R2 36-509)
chain: SDQPIDADVTVIGSGPGGYVAAIKAAQLGFKTVCIEKNETLGGTCLNVGCIPSKALLNNSHYYHLAHGKDFASRGIEIPEVRLNLEKMMEQKRSAVKALTGGIAHLFKQNKVVHVNGFGKITGKNQVTATTADGSTQVIGTKNILIATGSEVTPFPGITIDEDTIVSSTGALSLKKVPEKLVVIGAGVIGVELGSVWQRLGADVTAVEFLGHVGGIGIDMEISKNFQRILQKQGFKFKLNTKVTGATKKSDGKIDVSVEAASGGKAEVITCDVLLVCIGRRPFTQNLGLEELGIELDPKGRIPVNTRFQTKIPNIFAIGDVVAGPMLAHKAEDEGIICVEGMAGGAVHIDYNCVPSVIYTHPEVAWVGKSEEQLKEEGVEFKVGKFPFAANSRAKTNADTDGMVKILGHKSTDRILGAHILGPGAGEMVNEAALALEYGASCEDVARVCHAHPTLSEAFREANLAASFGKPINF
B8: Neurofilament light polypeptide (protein, UniProt P19527 1-542)
chain: MSSFSYEPYFSTSYKRRYVETPRVHISSVRSGYSTARSAYSSYSAPVSSSLSVRRSYSSSSGSLMPSLENLDLSQVAAISNDLKSIRTQEKAQLQDLNDRFASFIERVHELEQQNKVLEAELLVLRQKHSEPSRFRALYEQEIRDLRLAAEDATNEKQALQGEREGLEETLRNLQARYEEEVLSREDAEGRLMEARKGADEAALARAELEKRIDSLMDEIAFLKKVHEEEIAELQAQIQYAQISVEMDVSSKPDLSAALKDIRAQYEKLAAKNMQNAEEWFKSRFTVLTESAAKNTDAVRAAKDEVSESRRLLKAKTLEIEACRGMNEALEKQLQELEDKQNADISAMQDTINKLENELRSTKSEMARYLKEYQDLLNVKMALDIEIAAYRKLLEGEETRLSFTSVGSITSGYSQSSQVFGRSAYSGLQSSSYLMSARAFPAYYTSHVQEEQSEVEETIEATKAEEAKDEPPSEGEAEEEEKEKEEGEEEEGAEEEEAAKDESEDAKEEEGGEGEEEDTKESEEEEKKEESAGEEQAAKKKD
B9: Poly(A) polymerase gamma (protein, UniProt D3ZAN6 1-739)
chain: MKEMSANTMLDSQRQQKHYGITSPISLACPKEIDHIYTQKLIDAMKPFGVFEDEEELNHRLVVLGKLNNLVKEWISDISESKNLPPSVVATVGGKIFTFGSYRLGVHTKGADIDALCVAPRHVERSDFFQSFFEKLKHQDGVRNLRAVEDAFVPVIKFEFDGIEIDLVFARLAIQTISDNLDLRDDSRLRSLDIRCIRSLNGCRVTDEILHLVPNKETFRLTLRAVKLWAKRRGIYSNMLGFLGGVSWAMLVARTCQLYPNAAASTLVHKFFLVFSKWEWPNPVLLKQPEESNLNLPVWDPRVNPSDRYHLMPIITPAYPQQNSTYNVSTSTRTVMVEEFKQGLAVTDEILQGKSDWSKLLEPPNFFQKYRHYIVLTASASTEENHLEWVGLVESKIRVLVGNLERNEFITLAHVNPQSFPGNKEHHKANNYVSMWFLGIIFRRVENAESVNIDLTYDIQSFTDTVYRQANNINMLKDGMKIEATHVKKKQLHHYLPAEILQKKKKSLSDVSRSSGGLQSKRSSLDSNCLDSSRDTDSGTPFNSPGSAHKPSNPDSPTGDAERSNAEPMAVIVEKLPSVPPAQGLSIPVIGAKGDAAVKAVSSPAVCTIPTVVGRSVIPRVTTPHNPVQGQPHLNGISNITKNVTPKRSHSPPTDGTAKRLKDIEKFIRLESAFKESRAAEDRKRKPMDAIGGESMPIPTIDTSRKKRLPSKELPDSSSPVPASNIRVIKNSIRLTLNR

Results are given in words; binding and its absence hold for the method and conditions named. In cells and extracts the contact can be indirect. These calls come from enrichment with a bait or labelling near it, and not all partners need be listed.

This assay concerns the target Akt (protein kinase B) (rat (endogenous in rat cardiomyocytes)). Briefly: affinity purification with mass spectrometry; Akt precipitated with polyclonal Akt 1/2/3 antibody (sc-8312) and protein A-Sepharose from 1% NP-40 lysates of cardiomyocytes of control and MetS rats stimulated with 100 nM insulin for 10 min; label-free mass spectrometry of the immune complexes.
Regarding B1, the binding result is recorded as “binds”.
To B2 belongs “binds”; to B3, “binds”; to B4, “binds”.
As for B5, the entry is “binds”; as for B6, “binds”.
As for B7, the entry is “binds”; as for B8, “binds”.
For B9, the binding result is reported as “binds”.
